Results reported in publication PMC8210613.
Results are given in words; binding and its absence hold for the method and conditions named. Binding seen in cells or lysates may run through a third protein. Binding calls can cover weak binding; strength is not graded here.

Biological target: T1, endogenous Annexin-A1 (ANXA1) of primary cultured mouse neurons (mouse (endogenous in primary cultured neurons)) (UniProt P10107)
T1 sequence: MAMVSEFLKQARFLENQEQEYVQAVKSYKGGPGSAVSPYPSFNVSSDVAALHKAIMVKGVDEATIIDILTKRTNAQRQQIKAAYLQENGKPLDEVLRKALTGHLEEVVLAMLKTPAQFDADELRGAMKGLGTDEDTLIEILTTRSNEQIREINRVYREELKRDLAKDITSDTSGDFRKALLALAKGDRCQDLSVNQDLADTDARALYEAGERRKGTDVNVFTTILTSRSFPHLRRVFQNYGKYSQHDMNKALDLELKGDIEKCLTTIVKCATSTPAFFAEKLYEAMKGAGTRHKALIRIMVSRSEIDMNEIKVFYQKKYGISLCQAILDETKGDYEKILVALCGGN
Experiment: co-IP; endogenous proteins in whole-cell lysates of primary cultured mouse neurons, with or without OGD/R; in some panels neurons infected with adenovirus for SENP6-WT, SENP6-C1030S, SENP6 shRNA or controls; immunoprecipitation with anti-SENP6 or anti-ANXA1, protein A/G agarose, immunoblot

With “endogenous PKC kinase of primary cultured mouse neurons (enzyme)” the binding was “binds”.
